Results reported in US6180362A, “Peptides which inhibit ras protein activity, their preparation and use” (Rhone-Poulenc Rorer S.A., priority 1992, dated 2001).
Part of at least one peptide drawing is inferred or uncertain, most often the ends. No end group written: not given here.

Test system: maturation of Xenopus eggs induced by p21 ras Lys12
Test: Maturation of Xenopus eggs (oocytes) induced by ras, % GVBD
Format: cell-based, Xenopus laevis
Conditions: microinjection into oocyte cytoplasm together with ras p21 protein; GVBD after 18 hours
Method: Xenopus laevis frogs were obtained from CNRS (Montpellier, France). The frogs are anaesthetized in ice-water and fragments of the ovaries are removed surgically and transferred to a modified Barth medium (Hirai et al., Dev. Biol. 100 (1984) 214). The stage VI oocytes are recovered by agitating the oocyte aggregates for 2 hours at ambient temperature in the presence of 2 mg/ml of collagenase (Sigma). For analysis of the maturation induced by ras, 40 nl of the protein in modified Barth medium are introduced into the cytoplasm of the oocytes by microinjection, either alone or in the presence of various concentrations of anti-GAP antibodies. […] The oocytes are kept at 20° C. in modified Barth medium, and the […] germinal vesicle breakdown (GVBD) is determined after incubation for 18 hours by dissection of the oocytes, which have been fixed beforehand in the presence of 5% of trichloroacetic acid. […]
The protocol used is the same as that described in Example E.1.1. above. The activity is measured by microinjection into the cytoplasm of the oocytes of 40 nl of the ras p21 protein in modified Barth medium, either alone or in the presence of various peptides according to the invention in varying concentrations. […]

Sequence: WMWVTNLRTD [P5, WMWVTNLRTD]
- Inhibition of the transformation activity of the ras protein (maturation of Xenopus eggs, % GVBD): capable of inhibiting the transformation activity of the ras protein
